Most values lie at the floor of the assay. Slopes are relative: functional sequences can read slightly below zero.

In this series the test system is Saccharomyces cerevisiae PS128 hsf1 delta, HSF1(1-493) fusion. As to the kind of experiment: growth estimate (transactivation domain function in HSF1 fusion, heat-shock survival) (a.u. (slope of normalised read count over time)); higher = stronger growth at 37°C, i.e. more transactivation activity. Particulars: library: random library. The protocol: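 Random 60-nt DNA library encoding peptides of up to 20 aa, fused to the C-terminus of yeast HSF1 residues 1-493 (C-terminal TAD deleted) and expressed from the native HSF1 promoter on a CEN plasmid in hsf1-deleted S. cerevisiae PS128. Cells were selected at 37°C on -trp 5-FOA plates for 0, 2, 4, 6 and 8 days and amplicons were sequenced. Growth estimate is the slope of a robust linear fit of total-sum-normalised read counts (normalised to the first time point) over time, using at least 2 replicates. Sequences are classed functional (TAD activity) above a threshold of -0.13, set from stop-codon control sequences.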
Turning to RAMLVLLALSFAHAGKAPGS, the growth estimate was below -0.25.
Then GFK, with below -0.25.
Then QHPAHPAFTFLVQCGWVRPG, with below -0.25.
In the case of TAFGVCWKGRRTMSSAGGVL it was below -0.25.
Take GLSPL: the growth estimate was below -0.25.
Then SMRSVHGTDTLGLLEHISNL, with below -0.25; and QDVALACRGCGRTGRTSKGL, with below -0.25.
Then HSRDTCIIALFTNAGDAHKQ, with -0.196; and ERPGGLPGMSRRRLTV, with below -0.25; and NGAERLGAHPARGSRATMGR, with below -0.25.
Turning to SVPTG, the growth estimate was below -0.25.
Take IGFRH: the growth estimate is below -0.25.
Then VKGHYWQS, with below -0.25; and VSPYGEWSEASAVVCLDVHC, with below -0.25.
For the substance YISRPAMVRGIRVRNITFRY, the growth estimate was below -0.25.
Take DLQTRQIS: the growth estimate was below -0.25.
FTF: the growth estimate is below -0.25.
Consider TPGCVSIASGIRSFEGERRH, for which the growth estimate is below -0.25.
In the case of AYGDTACLQLLGNSDVLSAA it was below -0.25; in that of GEFSDW, below -0.25.
As for RGSCRKRGHGHRQQERTTPF, the growth estimate was below -0.25.
Turning to IALCQFHNGGTGLHGCTGLL, the growth estimate is below -0.25.
As for SPIQR, the growth estimate is below -0.25.
RYVMDVGHFRLKSRRTH: the growth estimate is below -0.25.
In the case of GTFVRVGCRMVGAYLRAAET it was below -0.25.
Then HRLVQVTVLLYYDYTRRLDW, with below -0.25.
In the case of SDVRLGPVEYLAVAYRRRWF, the growth estimate was below -0.25.
Then LSFHGPRTTVI, with below -0.25.
In the case of FISSF it was below -0.25; in that of KSAGGLGLA, below -0.25.
Turning to SYLLSADPSKYAS, the growth estimate was below -0.25.
Take PVKEVLRLCEQLRVPLRTLL: the growth estimate was below -0.25.
Then NCRREIRSGLLNNFHIGRPV, with below -0.25.
As for SSVSERLNQLGKLAAPTRGP, the growth estimate is -0.246.
Consider KVGADPCVGLSLNIE, for which the growth estimate is below -0.25.
For the substance IRNPL, the growth estimate is below -0.25.
Then VAEVSYTLLGRDTNLYGNVQ, with -0.231; and VIKPQRAQERFGTNASQFMV, with below -0.25.
Take GCQSQGSDSVEPKICG: the growth estimate was below -0.25.
For LRKRAQDGMING, the growth estimate was below -0.25.
Then GRLSLINPLGDGSSDRADWN, with below -0.25; and IVAIYARFTVYVGPDQRARR, with below -0.25.
Then YTDQFMGVNNGSESGDR, with 0.0721; and CEGNISFCLSLD, with below -0.25.
In the case of GKSPIVC it was below -0.25.
On to GQRRLLSGWRRDLPGPIKAV, for which the growth estimate is below -0.25.
In the case of EGCLAQHI it was below -0.25; in that of WRGLHAG, below -0.25.
PVDVNLRK: the growth estimate was below -0.25.
Then AGQYSRTRARVFHAFIPAVR, with below -0.25; and QFDAQGGGAEALVFRGVLIT, with below -0.25.
Then TCTINFP, with below -0.25; and CAPQPTKSTMAMRLSQTKVD, with below -0.25.
In the case of TVHDLDTLAGRWCSGFTETR it was below -0.25; in that of ECRASSRSGVLGSVGKPLSR, below -0.25.
On to SPRDYPGR, for which the growth estimate was below -0.25.
In the case of GRYRRSSGRNNQPFSRSH it was below -0.25; in that of WRVGSGI, below -0.25.
In the case of AQQSCLEPSPGFRNQLDGQF, the growth estimate is below -0.25.
Then RPVASSQLKF, with below -0.25.
Consider PISAG, for which the growth estimate was below -0.25.
Regarding GLSQSESNRP, the growth estimate is below -0.25.
Then CETLLIGYSVIFTVGEPSHA, with below -0.25.
Then SHRGEARNPGFTTGWLM, with below -0.25; and TPGGAPCHKRSFAPNTAPGL, with -0.246.
For GNSGSGPVGQFVAFPLSLVA, the growth estimate is below -0.25.
Then LSDIKFL, with below -0.25; and NRSSLAQESHPYVWCAAFTD, with below -0.25.
Then DLEYL, with below -0.25.
In the case of NLTCSLEVLTRDKVDGFFQQ it was below -0.25.
With APRLICSHVGLCVA, the growth estimate is below -0.25.
Then AQNSADSVPLCSAVCGMKCC, with below -0.253.
Regarding GPSTRGARRYRLPVHG, the growth estimate was below -0.25.
Then PQSSPWSLGAGAVLANYGYQ, with below -0.25.
In the case of DSSVDLALLMGSSRGYDLEM, the growth estimate was below -0.25.
Then LPT, with below -0.25.

Values taken from the supplement of paper PMC5949888.
